Source: PMC11247741

Protein sequences, listed by entry. Tags and fused reporters are not part of them.
UniProt P52480: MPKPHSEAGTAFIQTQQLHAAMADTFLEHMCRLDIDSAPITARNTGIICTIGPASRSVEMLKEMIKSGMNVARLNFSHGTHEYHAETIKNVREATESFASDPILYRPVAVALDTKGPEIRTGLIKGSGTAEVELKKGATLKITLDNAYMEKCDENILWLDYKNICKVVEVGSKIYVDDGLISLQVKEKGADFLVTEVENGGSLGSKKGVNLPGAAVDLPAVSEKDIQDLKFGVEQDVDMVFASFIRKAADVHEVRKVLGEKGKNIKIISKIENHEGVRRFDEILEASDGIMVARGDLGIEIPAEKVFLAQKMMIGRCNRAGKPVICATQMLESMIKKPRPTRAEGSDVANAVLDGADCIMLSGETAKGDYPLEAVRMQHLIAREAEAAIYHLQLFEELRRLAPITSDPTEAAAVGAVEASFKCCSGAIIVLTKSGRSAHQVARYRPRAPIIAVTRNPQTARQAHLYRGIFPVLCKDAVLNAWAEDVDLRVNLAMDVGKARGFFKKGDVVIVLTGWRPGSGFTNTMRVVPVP

Molecular target: T1, Sirt2 (NAD-dependent deacetylase sirtuin-2), endogenous mouse (mouse (endogenous in liver and AML12)) (UniProt Q8VDQ8)
T1 sequence: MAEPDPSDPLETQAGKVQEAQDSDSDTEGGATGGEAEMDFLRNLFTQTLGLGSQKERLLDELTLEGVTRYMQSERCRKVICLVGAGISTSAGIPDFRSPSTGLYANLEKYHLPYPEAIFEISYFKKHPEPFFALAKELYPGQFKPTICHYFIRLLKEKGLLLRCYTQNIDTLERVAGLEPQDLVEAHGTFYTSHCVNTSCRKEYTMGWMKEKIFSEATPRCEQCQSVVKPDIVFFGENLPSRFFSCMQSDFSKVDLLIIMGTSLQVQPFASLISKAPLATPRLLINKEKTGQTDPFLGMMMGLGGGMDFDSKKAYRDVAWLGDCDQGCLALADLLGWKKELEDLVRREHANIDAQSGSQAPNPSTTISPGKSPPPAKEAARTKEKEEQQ
Assay: affinity purification with mass spectrometry; IP-MS of liver tissues of wild-type mice; the precipitating antibody is not told

binding: binds
Substance: PKM2 (M2 isoform of pyruvate kinase), endogenous mouse (from UniProt P52480 1-531)

These are yes or no findings as the source states them, for the method shown. In cells and extracts the contact can be indirect. Here binding means that the protein was enriched with, or labelled near, the bait; the list need not be complete.
